In paper PMC10782416 one finds Kd data, which are given here for three sequences.

The chains behind the UniProt entries cited, without tags or fusion partners. Residues count along the entry.
UniProt P19338, whole entry: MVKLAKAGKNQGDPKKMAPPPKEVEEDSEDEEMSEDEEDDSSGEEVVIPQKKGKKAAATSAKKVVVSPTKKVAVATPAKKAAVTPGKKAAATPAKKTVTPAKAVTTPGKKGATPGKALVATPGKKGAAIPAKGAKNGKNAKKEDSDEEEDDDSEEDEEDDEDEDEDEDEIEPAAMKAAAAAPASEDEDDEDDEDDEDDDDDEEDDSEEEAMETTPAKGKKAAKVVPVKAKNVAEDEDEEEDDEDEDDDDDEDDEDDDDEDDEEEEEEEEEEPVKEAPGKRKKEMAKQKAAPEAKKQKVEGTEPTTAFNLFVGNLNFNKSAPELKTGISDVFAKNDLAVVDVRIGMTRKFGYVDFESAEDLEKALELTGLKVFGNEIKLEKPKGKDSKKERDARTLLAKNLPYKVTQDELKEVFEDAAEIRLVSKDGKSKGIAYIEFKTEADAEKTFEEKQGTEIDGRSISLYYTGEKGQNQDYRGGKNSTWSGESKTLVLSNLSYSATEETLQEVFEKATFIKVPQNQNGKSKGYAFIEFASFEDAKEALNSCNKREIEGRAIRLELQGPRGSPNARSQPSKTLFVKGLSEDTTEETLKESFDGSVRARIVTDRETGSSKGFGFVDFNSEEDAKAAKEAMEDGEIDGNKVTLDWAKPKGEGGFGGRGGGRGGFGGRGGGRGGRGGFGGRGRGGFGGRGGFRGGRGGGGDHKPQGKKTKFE
UniProt P01127, 82-190: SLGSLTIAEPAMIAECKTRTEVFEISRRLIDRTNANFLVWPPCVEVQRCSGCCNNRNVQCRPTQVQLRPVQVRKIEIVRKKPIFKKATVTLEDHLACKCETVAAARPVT

For some of these results: The exact form of at least one protein or probe is not confirmed.

Series [1] addresses human serum albumin (HSA) (Homo sapiens) (UniProt P02768). Briefly: FCS. To be noted: HSA 10 uM to 2 mM, weak residual binding not excluded; PBS pH 7.4; aptamer folded in PBS with 5 mM MgCl2 (1 mM for AS1411 and 36t), 90 C 2 min then cooled; final buffer not detailed; overnight at room temperature; native protein; label: 5'-atto633; folded or branched DNA.
Series [2] addresses nucleolin (NCL) (Homo sapiens) (UniProt P19338). Kind of series: SPR. Particulars: PBS pH 7.4; aptamer folded in PBS with 5 mM MgCl2 (1 mM for AS1411 and 36t), 90 C 2 min then cooled; final buffer not detailed; overnight at room temperature; commercial protein; label: 5'-atto633; folded or branched DNA.
Series [3] concerns the target PDGF-BB (Homo sapiens) (UniProt P01127). Briefly: BLI. Particulars: PBS pH 7.4; aptamer folded in PBS with 5 mM MgCl2 (1 mM for AS1411 and 36t), 90 C 2 min then cooled; final buffer not detailed; overnight at room temperature; commercial protein; label: 5'-atto633; folded or branched DNA.
Series [4] has the same target. Briefly: filter binding. Particulars: PBS pH 7.4; aptamer folded in PBS with 5 mM MgCl2 (1 mM for AS1411 and 36t), 90 C 2 min then cooled; final buffer not detailed; overnight at room temperature; commercial protein; label: 5'-atto633; folded or branched DNA.

As to “ATCAGGTGGATGGTAGCTCGGTCGGGGTGGGTGGGTTGGCAAGTCTGATTA [CLN3]”, in series [1], the Kd is greater than 300000 nM.

In series [2], TTTGGTGGTGGTGGTTGTGGTGGTGGTGG [AS1411] gave an equilibrium dissociation constant (Kd) of 34.2 nM.

Consider “CACAGGCTACGGCACGTAGAGCATCACCATGATCCTGTG [36t]”, for which the results for the Kd in series [3] and in series [4] were 1 nM and 0.1 nM, respectively.
